Assay results taken from patent US20110300071A1 (Washington University, priority 2010, published 2011).

Assay: peptide synthesis
Settings: conjugation step

**Q.** With “poly(ethylene glycol) CANF methacrylate (CANF-PEGMA)” as the substance, how does the conjugation yield read?
**A.** 41%
